± gives the standard deviation of the averaged measurements. The list shows a part of the results.
These compounds were tested on APPdp1-6 iPSC-derived neurons (assay: pThr231Tau/total Tau ratio Z-score vs DMSO vehicle wells; higher = more pThr231Tau relative to total Tau). Conditions: 5 µM; treatment time 5 days.

Question: With `C#C[C@]1(O)CC[C@H]2[C@@H]3CCC4=CC(=O)CC[C@@H]4[C@H]3CC[C@@]21C` [Prestw-253] as the compound, how does the “pThr231Tau/total Tau ratio Z-score” value read?
Answer: The value was 0.309 ± 0.13.

Question: Which “pThr231Tau/total Tau ratio Z-score” value does the source give for `C#C[C@]1(OC(C)=O)CC[C@H]2[C@@H]3CCC4=C[C@@H](OC(C)=O)CC[C@@H]4[C@H]3CC[C@@]21C` [Prestw-908] here?
Answer: The value was 0.0101 ± 0.87.

Question: `C#C[C@]1(OC(C)=O)CC[C@H]2[C@@H]3CCC4=C[C@@H](OC(C)=O)CC[C@@H]4[C@H]3CC[C@@]21C` [ETHYNODIOL DIACETATE, progestin] was tested. Which “pThr231Tau/total Tau ratio Z-score” value did it give?
Answer: Its value is 1.35 ± 1.4.

Question: With `Nc1ccc(S(=O)(=O)Nc2ncccn2)cc1` [Prestw-23] as the compound, how does the “pThr231Tau/total Tau ratio Z-score” value read?
Answer: The value was 1.1 ± 1.5.

Question: Which “pThr231Tau/total Tau ratio Z-score” value does the source give for `Nc1ccc(O)c(C(=O)O)c1` [Prestw-1069] here?
Answer: The value was -0.0608 ± 0.46.

Question: Which “pThr231Tau/total Tau ratio Z-score” value does the source give for `CCN(CC)CCOC(=O)C1(c2ccc([N+](=O)[O-])cc2)CCCC1` [Prestw-981] here?
Answer: The value was -0.139 ± 0.36.

Question: How did the “pThr231Tau/total Tau ratio Z-score” value turn out when `Clc1ccccc1CN1CCc2sccc2C1` [Prestw-47] was run?
Answer: The value was -0.492 ± 0.57.

Question: How did the “pThr231Tau/total Tau ratio Z-score” value turn out when `CCC(=O)O[C@H](CC(=O)O)C[N+](C)(C)C` [AMINOPENTAMIDE, antispasmodic, antiemetic] was run?
Answer: The value was -0.969 ± 0.17.

Question: With `CO[C@@]1(NC(=O)C2SC(=C(C(N)=O)C(=O)O)S2)C(=O)N2C(C(=O)O)=C(CSc3nnnn3C)CS[C@@H]21` (stereo partly specified) [Prestw-473] as the compound, how does the “pThr231Tau/total Tau ratio Z-score” value read?
Answer: Its value is -0.253 ± 0.92.

Question: How did the “pThr231Tau/total Tau ratio Z-score” value turn out when `CN(C)CCCN1c2ccccc2CCc2ccc(Cl)cc21` [Prestw-269] was run?
Answer: Its value is -2.4.

Question: With `Cc1cc(NC(=O)C2=C(O)c3ccccc3S(=O)(=O)N2C)no1` [Prestw-44] as the compound, how does the “pThr231Tau/total Tau ratio Z-score” value read?
Answer: The value was -1.29 ± 0.62.

Question: With `COC(=O)C1=C(C)NC(C)=C(C(=O)OC)C1c1ccccc1[N+](=O)[O-]` [Prestw-63] as the compound, how does the “pThr231Tau/total Tau ratio Z-score” value read?
Answer: Its value is -3.68 ± 0.4.

Question: How did the “pThr231Tau/total Tau ratio Z-score” value turn out when `CN1CCN(CCCN2c3ccccc3Sc3ccc(S(=O)(=O)N(C)C)cc32)CC1` [Prestw-149] was run?
Answer: The value was -0.658 ± 0.76.

Question: With `C[C@@H](c1ncncc1F)[C@](O)(Cn1cncn1)c1ccc(F)cc1F` [Prestw-1500] as the compound, how does the “pThr231Tau/total Tau ratio Z-score” value read?
Answer: The value was -0.103 ± 0.69.

Question: For `O=C(O)Cc1ccccc1Nc1c(Cl)cccc1Cl` [Prestw-594], which “pThr231Tau/total Tau ratio Z-score” value is on record?
Answer: The value was -1.04 ± 0.42.

Question: `N=c1ccn2c(n1)O[C@H]1[C@H](O)[C@@H](CO)O[C@H]12` was tested. Which “pThr231Tau/total Tau ratio Z-score” value did it give?
Answer: Its value is -1.52 ± 0.63.

Question: Which “pThr231Tau/total Tau ratio Z-score” value does the source give for `CC(=O)Oc1cc(C(F)(F)F)ccc1C(=O)O` [Prestw-528] here?
Answer: The value was -0.285 ± 0.64.

Question: How did the “pThr231Tau/total Tau ratio Z-score” value turn out when `CS(=O)(=O)c1ccc([C@@H](O)[C@@H](CO)NC(=O)C(Cl)Cl)cc1` [Prestw-25] was run?
Answer: The value was -0.414 ± 0.82.

Question: `CC(C)Cc1ccc([C@H](C)C(=O)O)cc1` [Prestw-907] was tested. Which “pThr231Tau/total Tau ratio Z-score” value did it give?
Answer: Its value is 1.22 ± 1.8.

Question: `C[C@]12C=CC(=O)C=C1CC[C@@H]1[C@@H]2[C@@H](O)C[C@@]2(C)[C@H]1CC[C@]2(O)C(=O)CO` [Prestw-274] was tested. Which “pThr231Tau/total Tau ratio Z-score” value did it give?
Answer: Its value is 0.424 ± 0.66.

Question: For `O=c1[nH]cc(F)c(=O)[nH]1` [Prestw-1203], which “pThr231Tau/total Tau ratio Z-score” value is on record?
Answer: Its value is -0.111 ± 0.25.

Question: For `O=C1C(CC[S+]([O-])c2ccccc2)C(=O)N(c2ccccc2)N1c1ccccc1` (stereo unspecified) [Prestw-290], which “pThr231Tau/total Tau ratio Z-score” value is on record?
Answer: Its value is 0.361 ± 0.44.

Question: With `CC(=O)OC/C=C(C)/C=C/C=C(C)/C=C/C1=C(C)CCCC1(C)C` [RETINYL ACETATE    Therap cat: vitamin precursor] as the compound, how does the “pThr231Tau/total Tau ratio Z-score” value read?
Answer: The value was -0.185 ± 0.55.

Question: `CC(=O)O[C@]1(C(C)=O)CC[C@H]2[C@@H]3C=C(C)C4=CC(=O)CC[C@@H]4[C@H]3CC[C@@]21C` [Prestw-1033] was tested. Which “pThr231Tau/total Tau ratio Z-score” value did it give?
Answer: Its value is -1.1 ± 0.82.

Question: How did the “pThr231Tau/total Tau ratio Z-score” value turn out when `COc1cc2nc(N3CCN(C(=O)C4CCCO4)CC3)nc(N)c2cc1OC` (stereo unspecified) [Prestw-751] was run?
Answer: Its value is -1.4 ± 0.38.

Question: Which “pThr231Tau/total Tau ratio Z-score” value does the source give for `Oc1ccc(O)cc1` [Arachidonate 12-Lipoxygenase inhibitor] here?
Answer: The value was 0.961 ± 0.69.

Question: With `CCCCC[C@H](O)/C=C/[C@@H]1[C@@H](C/C=C\CCCC(=O)O)[C@@H](O)C[C@H]1O.COC(N)(CO)CO` [Prestw-460] as the compound, how does the “pThr231Tau/total Tau ratio Z-score” value read?
Answer: The value was 0.313 ± 0.85.

Question: `CC1CCC(NC(=O)N(CCCl)N=O)CC1` (stereo unspecified) [SEMUSTINE    Therap cat: antineoplastic] was tested. Which “pThr231Tau/total Tau ratio Z-score” value did it give?
Answer: Its value is 0.713 ± 0.67.

Question: How did the “pThr231Tau/total Tau ratio Z-score” value turn out when `CC1(O)CCOC(=O)C1` (stereo unspecified) [Prestw-750] was run?
Answer: Its value is -0.339 ± 0.75.

Question: `Nc1ccc(S(=O)(=O)Nc2ccc(Cl)nn2)cc1` [Prestw-715] was tested. Which “pThr231Tau/total Tau ratio Z-score” value did it give?
Answer: Its value is 0.136 ± 1.2.

Question: With `CN(C)CCCOc1nn(Cc2ccccc2)c2ccccc12` [Prestw-297] as the compound, how does the “pThr231Tau/total Tau ratio Z-score” value read?
Answer: The value was 0.68 ± 1.3.

Question: With `OC[C@@H](O)[C@@H](O)[C@H](O)[C@@H](O)CO` [Sorbitol] as the compound, how does the “pThr231Tau/total Tau ratio Z-score” value read?
Answer: Its value is 1.09 ± 0.93.

Question: Which “pThr231Tau/total Tau ratio Z-score” value does the source give for `OC[C@@H](O)[C@@H](O)[C@H](O)[C@@H](O)CO` [SORBITOL, sweetening agent and humectant] here?
Answer: Its value is 0.402 ± 0.53.

Question: For `S=C=Nc1ccc(N=C=S)cc1`, which “pThr231Tau/total Tau ratio Z-score” value is on record?
Answer: Its value is 1.73 ± 1.3.

Question: For `C#C[C@]1(O)CC[C@H]2[C@@H]3[C@H](C)CC4=C(CCC(=O)C4)[C@H]3CC[C@@]21C` [Prestw-1181], which “pThr231Tau/total Tau ratio Z-score” value is on record?
Answer: The value was -0.746 ± 0.21.

Question: Which “pThr231Tau/total Tau ratio Z-score” value does the source give for `CC(=O)OCC(=O)[C@@]1(O)CC[C@H]2[C@@H]3CCC4=CC(=O)C=C[C@]4(C)[C@@]3(F)[C@@H](O)C[C@@]21C` [Prestw-6] here?
Answer: The value was 0.0317 ± 0.74.
